# The other results are listed elsewhere or left out.
# Chains of the proteins cited; added tags and fusions are not shown. Lines headed by an entry give the natural chain unless they say otherwise; changes in a name come on top.
# UniProt Q96RP9: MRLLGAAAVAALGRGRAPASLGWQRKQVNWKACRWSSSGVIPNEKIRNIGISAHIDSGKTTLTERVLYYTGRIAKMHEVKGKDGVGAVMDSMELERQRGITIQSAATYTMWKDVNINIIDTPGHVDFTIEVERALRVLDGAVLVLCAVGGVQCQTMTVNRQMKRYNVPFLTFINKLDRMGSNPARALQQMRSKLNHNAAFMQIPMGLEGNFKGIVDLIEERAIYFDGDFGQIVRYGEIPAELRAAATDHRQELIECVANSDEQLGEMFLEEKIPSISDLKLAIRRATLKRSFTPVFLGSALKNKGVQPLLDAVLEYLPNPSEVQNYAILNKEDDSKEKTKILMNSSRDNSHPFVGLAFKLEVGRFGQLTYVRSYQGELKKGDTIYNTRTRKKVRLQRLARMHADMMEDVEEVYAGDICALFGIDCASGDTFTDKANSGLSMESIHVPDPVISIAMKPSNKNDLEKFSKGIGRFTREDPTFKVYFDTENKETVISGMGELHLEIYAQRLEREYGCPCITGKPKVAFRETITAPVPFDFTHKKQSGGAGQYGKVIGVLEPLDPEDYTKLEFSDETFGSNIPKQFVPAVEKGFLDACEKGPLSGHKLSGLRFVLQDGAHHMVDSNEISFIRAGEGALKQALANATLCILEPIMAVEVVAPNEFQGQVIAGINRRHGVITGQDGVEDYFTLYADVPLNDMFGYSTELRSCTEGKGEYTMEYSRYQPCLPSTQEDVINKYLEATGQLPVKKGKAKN
# UniProt P09211: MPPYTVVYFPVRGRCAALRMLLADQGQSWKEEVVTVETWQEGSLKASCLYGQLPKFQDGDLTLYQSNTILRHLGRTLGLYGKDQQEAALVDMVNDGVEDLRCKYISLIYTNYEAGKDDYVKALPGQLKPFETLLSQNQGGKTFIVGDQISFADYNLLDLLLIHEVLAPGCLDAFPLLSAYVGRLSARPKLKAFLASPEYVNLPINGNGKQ
# UniProt Q06210: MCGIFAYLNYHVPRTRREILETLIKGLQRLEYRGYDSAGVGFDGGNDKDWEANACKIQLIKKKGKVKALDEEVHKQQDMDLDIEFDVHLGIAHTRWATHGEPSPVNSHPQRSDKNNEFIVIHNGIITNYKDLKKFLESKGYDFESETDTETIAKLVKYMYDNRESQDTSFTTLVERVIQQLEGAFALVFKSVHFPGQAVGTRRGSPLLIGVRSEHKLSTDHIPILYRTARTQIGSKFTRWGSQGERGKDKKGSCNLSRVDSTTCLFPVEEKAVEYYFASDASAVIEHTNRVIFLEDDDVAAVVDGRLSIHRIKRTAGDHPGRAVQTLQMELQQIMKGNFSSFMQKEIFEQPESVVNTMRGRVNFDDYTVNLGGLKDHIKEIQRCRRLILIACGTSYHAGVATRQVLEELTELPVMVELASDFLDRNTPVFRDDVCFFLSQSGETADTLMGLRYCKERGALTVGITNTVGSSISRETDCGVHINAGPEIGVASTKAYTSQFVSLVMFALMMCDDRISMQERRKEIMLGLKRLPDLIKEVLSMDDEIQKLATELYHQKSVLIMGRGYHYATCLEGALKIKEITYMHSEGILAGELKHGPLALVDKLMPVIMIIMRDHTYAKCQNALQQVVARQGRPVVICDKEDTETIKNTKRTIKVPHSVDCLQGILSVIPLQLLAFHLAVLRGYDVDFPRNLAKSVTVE
# UniProt P32249, whole entry: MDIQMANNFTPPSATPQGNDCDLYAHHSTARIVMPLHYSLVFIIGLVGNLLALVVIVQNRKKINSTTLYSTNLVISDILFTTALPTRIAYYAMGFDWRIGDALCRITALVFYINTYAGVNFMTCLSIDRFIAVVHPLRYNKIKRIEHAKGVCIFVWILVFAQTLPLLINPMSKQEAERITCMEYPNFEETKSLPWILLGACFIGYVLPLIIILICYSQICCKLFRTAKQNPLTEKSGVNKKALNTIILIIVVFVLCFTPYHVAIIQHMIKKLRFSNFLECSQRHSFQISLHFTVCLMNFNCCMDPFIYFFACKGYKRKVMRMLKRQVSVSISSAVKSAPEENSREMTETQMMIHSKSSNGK
# UniProt Q9HAV0, whole entry: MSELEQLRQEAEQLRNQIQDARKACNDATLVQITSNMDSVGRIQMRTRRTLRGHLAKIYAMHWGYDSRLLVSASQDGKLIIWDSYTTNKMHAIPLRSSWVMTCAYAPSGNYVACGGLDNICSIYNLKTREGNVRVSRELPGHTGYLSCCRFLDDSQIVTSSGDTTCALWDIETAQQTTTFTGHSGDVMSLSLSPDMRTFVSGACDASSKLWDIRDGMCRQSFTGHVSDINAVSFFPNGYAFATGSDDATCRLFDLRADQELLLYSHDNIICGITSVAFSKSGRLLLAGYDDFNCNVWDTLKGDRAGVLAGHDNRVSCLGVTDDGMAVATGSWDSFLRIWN
# UniProt P13984, whole entry: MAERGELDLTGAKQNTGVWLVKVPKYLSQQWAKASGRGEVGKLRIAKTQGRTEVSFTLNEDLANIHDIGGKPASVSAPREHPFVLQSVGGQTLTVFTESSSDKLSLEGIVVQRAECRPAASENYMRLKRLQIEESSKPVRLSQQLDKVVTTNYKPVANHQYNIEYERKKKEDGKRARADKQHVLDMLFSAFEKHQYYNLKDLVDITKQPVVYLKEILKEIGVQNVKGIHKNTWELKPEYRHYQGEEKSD
# UniProt P15170, whole entry: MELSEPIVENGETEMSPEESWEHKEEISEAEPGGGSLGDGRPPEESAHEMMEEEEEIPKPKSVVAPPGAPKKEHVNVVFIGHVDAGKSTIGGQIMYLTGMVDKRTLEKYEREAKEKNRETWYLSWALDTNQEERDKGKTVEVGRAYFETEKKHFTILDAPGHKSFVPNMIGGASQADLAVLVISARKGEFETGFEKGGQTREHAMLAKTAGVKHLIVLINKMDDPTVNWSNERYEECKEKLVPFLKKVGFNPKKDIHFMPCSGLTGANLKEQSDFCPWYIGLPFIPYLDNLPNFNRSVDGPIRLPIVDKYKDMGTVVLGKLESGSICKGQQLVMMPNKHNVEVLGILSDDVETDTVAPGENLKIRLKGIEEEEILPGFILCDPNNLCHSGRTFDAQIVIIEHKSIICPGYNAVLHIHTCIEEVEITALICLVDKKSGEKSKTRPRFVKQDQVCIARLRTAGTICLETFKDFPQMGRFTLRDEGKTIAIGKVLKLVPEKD
# UniProt P49915: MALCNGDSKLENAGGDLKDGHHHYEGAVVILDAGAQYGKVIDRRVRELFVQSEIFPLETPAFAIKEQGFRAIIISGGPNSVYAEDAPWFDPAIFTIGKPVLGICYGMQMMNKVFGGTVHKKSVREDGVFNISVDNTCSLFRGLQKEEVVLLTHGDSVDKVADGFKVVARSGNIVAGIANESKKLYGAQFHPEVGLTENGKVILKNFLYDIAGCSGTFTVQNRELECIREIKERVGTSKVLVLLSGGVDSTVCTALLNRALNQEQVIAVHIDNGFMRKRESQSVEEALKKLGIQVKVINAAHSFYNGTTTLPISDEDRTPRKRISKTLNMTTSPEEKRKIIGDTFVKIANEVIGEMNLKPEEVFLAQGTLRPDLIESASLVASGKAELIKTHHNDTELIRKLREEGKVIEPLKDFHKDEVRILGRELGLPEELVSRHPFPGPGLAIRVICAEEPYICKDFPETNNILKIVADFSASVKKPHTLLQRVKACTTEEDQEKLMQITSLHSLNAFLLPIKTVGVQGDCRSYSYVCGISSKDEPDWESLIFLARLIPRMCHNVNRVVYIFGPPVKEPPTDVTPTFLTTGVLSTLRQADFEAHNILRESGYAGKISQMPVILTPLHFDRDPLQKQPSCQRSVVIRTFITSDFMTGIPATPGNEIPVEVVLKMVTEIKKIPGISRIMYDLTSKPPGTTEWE
# UniProt O15228: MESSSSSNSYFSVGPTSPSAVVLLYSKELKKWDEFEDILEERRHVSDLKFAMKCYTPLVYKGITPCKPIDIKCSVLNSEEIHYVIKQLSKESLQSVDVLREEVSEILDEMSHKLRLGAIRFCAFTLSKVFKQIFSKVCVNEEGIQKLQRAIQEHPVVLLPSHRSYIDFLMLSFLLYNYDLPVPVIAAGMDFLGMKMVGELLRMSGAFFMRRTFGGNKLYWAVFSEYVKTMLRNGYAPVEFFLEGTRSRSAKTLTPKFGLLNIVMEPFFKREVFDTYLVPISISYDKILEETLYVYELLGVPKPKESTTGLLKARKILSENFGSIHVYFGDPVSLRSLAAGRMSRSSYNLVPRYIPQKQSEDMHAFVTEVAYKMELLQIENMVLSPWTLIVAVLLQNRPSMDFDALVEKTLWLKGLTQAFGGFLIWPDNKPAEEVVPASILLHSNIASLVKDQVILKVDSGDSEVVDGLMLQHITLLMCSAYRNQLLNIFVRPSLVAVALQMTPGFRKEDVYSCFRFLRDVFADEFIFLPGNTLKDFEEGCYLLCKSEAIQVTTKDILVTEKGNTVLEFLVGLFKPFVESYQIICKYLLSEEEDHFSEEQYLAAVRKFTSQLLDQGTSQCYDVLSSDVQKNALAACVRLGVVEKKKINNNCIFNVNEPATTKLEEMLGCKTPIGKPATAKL
# UniProt Q9NQE9: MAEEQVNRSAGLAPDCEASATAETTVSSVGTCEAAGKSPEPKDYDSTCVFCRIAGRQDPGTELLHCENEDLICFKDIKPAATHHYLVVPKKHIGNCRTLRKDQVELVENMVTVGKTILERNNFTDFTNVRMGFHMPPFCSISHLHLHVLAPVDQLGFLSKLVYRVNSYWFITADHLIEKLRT
# UniProt Q14344, whole entry: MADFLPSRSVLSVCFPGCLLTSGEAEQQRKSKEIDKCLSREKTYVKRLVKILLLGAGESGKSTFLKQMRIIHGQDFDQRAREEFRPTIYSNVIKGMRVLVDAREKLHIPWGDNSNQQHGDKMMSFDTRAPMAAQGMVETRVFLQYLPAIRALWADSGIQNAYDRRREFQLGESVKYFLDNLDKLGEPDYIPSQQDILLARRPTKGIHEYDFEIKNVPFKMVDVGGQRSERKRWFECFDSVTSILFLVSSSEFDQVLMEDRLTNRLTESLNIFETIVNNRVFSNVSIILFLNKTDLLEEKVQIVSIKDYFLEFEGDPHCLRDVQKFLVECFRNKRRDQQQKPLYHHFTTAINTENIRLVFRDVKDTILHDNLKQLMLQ
# UniProt P36915, whole entry: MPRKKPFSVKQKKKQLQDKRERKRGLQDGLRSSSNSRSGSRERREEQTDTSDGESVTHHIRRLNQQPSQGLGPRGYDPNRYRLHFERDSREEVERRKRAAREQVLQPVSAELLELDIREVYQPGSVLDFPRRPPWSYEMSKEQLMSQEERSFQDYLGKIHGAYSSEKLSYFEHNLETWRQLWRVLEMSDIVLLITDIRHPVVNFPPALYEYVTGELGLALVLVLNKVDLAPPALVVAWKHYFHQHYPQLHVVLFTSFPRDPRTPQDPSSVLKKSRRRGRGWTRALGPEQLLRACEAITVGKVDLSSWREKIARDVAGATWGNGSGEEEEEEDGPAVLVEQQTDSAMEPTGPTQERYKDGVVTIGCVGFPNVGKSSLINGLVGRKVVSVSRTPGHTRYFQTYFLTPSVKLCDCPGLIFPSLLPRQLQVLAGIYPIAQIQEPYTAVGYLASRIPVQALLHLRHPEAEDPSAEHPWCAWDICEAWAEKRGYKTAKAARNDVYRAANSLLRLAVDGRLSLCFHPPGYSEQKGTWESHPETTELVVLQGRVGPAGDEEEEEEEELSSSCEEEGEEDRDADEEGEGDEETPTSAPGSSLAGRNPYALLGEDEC
# UniProt Q5T447: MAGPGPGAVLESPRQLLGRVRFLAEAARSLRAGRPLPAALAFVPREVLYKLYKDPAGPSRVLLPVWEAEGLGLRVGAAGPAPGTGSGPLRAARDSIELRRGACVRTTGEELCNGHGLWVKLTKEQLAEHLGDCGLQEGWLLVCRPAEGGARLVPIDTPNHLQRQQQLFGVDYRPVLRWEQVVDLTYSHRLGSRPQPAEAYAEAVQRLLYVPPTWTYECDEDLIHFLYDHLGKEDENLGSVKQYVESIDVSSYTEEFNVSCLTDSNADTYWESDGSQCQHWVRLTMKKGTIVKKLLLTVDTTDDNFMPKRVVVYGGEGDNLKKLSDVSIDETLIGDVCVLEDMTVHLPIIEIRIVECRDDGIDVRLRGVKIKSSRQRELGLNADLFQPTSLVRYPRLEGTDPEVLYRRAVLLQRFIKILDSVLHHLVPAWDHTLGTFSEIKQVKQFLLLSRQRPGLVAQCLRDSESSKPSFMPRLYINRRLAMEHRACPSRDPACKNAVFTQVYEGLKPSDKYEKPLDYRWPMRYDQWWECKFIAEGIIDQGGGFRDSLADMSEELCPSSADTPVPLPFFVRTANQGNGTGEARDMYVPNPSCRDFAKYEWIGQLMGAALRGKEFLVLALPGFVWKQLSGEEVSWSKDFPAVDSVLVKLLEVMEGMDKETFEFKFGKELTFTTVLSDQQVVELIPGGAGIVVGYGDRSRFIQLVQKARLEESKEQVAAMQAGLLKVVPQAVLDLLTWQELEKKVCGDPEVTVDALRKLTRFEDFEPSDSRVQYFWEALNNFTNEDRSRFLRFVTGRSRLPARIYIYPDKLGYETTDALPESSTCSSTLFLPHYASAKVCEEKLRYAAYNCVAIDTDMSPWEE
# Compound: COc1ccc(Cn2ccc3ccc(C(=O)NO)cc32)cc1
# Assay: dose-dependent thermal stabilisation call (2D-TPP, DLPTP, 10% FDR) (binary (1 = stabilised)); higher = stabilised by the compound
# Conditions: system: HL-60 intact cells; concentration range 0.04-10 µM
row,Target,dose-dependent thermal stabilisation call
1,GFM1 (UniProt Q96RP9),inactive: 0
2,GPATCH2 (UniProt Q9NW75),inactive: 0
3,GDAP1 (UniProt Q8TB36),inactive: 0
4,HDGF2,inactive: 0
5,GRLF1 (UniProt Q9NRY4),inactive: 0
6,GSTP1 (UniProt P09211),inactive: 0
7,GFPT1 (UniProt Q06210),inactive: 0
8,GPR183 (UniProt P32249),inactive: 0
9,GNS (UniProt P15586),inactive: 0
10,HCFC1 (UniProt P51610),inactive: 0
11,HGF (UniProt P14210),inactive: 0
12,GGA3 (UniProt Q9NZ52),inactive: 0
13,GK5 (UniProt Q6ZS86),inactive: 0
14,GNB4 (UniProt Q9HAV0),inactive: 0
15,GLOD4 (UniProt Q9HC38),inactive: 0
16,GGT5 (UniProt P36269),inactive: 0
17,GTF2F2 (UniProt P13984),inactive: 0
18,GSPT1 (UniProt P15170),inactive: 0
19,GCDH (UniProt Q92947),active: 1
20,GMPS (UniProt P49915),inactive: 0
21,GNPAT (UniProt O15228),inactive: 0
22,GIPC1 (UniProt O14908),inactive: 0
23,GPHN (UniProt Q9NQX3),inactive: 0
24,HINT3 (UniProt Q9NQE9),inactive: 0
25,GNA13 (UniProt Q14344),inactive: 0
26,GNL1 (UniProt P36915),inactive: 0
27,GLG1 (UniProt Q92896),inactive: 0
28,HECTD3 (UniProt Q5T447),inactive: 0

# In another format: results already given.
row	Target	dose-dependent thermal stabilisation call
10	HCFC1 (UniProt P51610)	inactive: 0
24	HINT3 (UniProt Q9NQE9)	inactive: 0

# — the supplement of paper PMC7666118
